Paper PMC3538539, “Self-Interaction of Human Pex11pβ during Peroxisomal Growth and Division” (PLoS ONE, 2013)
These are yes or no findings as the source states them, for the method shown. For part of these data: Binding seen in cells or lysates may run through a third protein. Some entries that bind do so weakly or less than the wild type. Where a sequence is shown, tags or fusion partners need not be part of it. Values belong to the binder of their own block, whether it stands above or below them.

Key:
[1] = biological target: Pex11pβΔN40-Myc (human) (UniProt O96011); assay: cross-linking; COS-7 cells fixed with 4% para-formaldehyde 24 h after transfection, postfixation extraction with 0.2% Triton X-100 (or digitonin); extracts, pellets and unfixed lysates on SDS-PAGE, anti-Myc immunoblot
[2] = biological target: Pex11pβ-Myc^A21P (human) (UniProt O96011); assay: as above
[3] = biological target: HsPex11pβ-Myc (human) (UniProt O96011); assay: sucrose density gradient centrifugation; cells lysed with 1% digitonin without cross-linking; 10-47% sucrose step gradient with 0.1% digitonin, 3 h at 125,000 x g, 4°C, 12 fractions, anti-Myc immunoblot

binding [1]: no binding
B1: Pex11pβΔN40-Myc (domain or fragment, UniProt O96011 41-259)
chain: LQKQIRQLESHLSLGRKLLRLGNSADALESAKRAVHLSDVVLRFCITVSHLNRALYFACDNVLWAGKSGLAPRVDQEKWAQRSFRYYLFSLIMNLSRDAYEIRLLMEQESSACSRRLKGSGGGVPGGSETGGLGGPGTPGGGLPQLALKLRLQVLLLARVLRGHPPLLLDVVRNACDLFIPLDKLGLWRCGPGIVGLCGLVSSILSILTLIYPWLRLKP

binding [2]: binds weakly
B2: Pex11pβ-Myc^A21P (protein, UniProt O96011 1-259)
chain: MDAWVRFSAQSQARERLCRAPQYACSLLGHALQRHGASPELQKQIRQLESHLSLGRKLLRLGNSADALESAKRAVHLSDVVLRFCITVSHLNRALYFACDNVLWAGKSGLAPRVDQEKWAQRSFRYYLFSLIMNLSRDAYEIRLLMEQESSACSRRLKGSGGGVPGGSETGGLGGPGTPGGGLPQLALKLRLQVLLLARVLRGHPPLLLDVVRNACDLFIPLDKLGLWRCGPGIVGLCGLVSSILSILTLIYPWLRLKP

binding [3]: binds
B3: HsPex11pβ-Myc (natural protein, human, UniProt O96011 1-259, looked up)
chain: MDAWVRFSAQSQARERLCRAAQYACSLLGHALQRHGASPELQKQIRQLESHLSLGRKLLRLGNSADALESAKRAVHLSDVVLRFCITVSHLNRALYFACDNVLWAGKSGLAPRVDQEKWAQRSFRYYLFSLIMNLSRDAYEIRLLMEQESSACSRRLKGSGGGVPGGSETGGLGGPGTPGGGLPQLALKLRLQVLLLARVLRGHPPLLLDVVRNACDLFIPLDKLGLWRCGPGIVGLCGLVSSILSILTLIYPWLRLKP
notes: human Pex11pβ (HsPex11pβ), peroxisomal membrane protein 11B; also called Pex11pβ-Myc (WT); wild type Pex11pβ-Myc; source: COS-7, transfected; cross-linked in cells, then in detergent extract or lysate; not shown: Myc, C-terminal, kept
